Assay results published in PMC11066876, “Late-Stage Saturation of Drug Molecules” (Journal of the American Chemical Society, 2024).

Assay: High-throughput (direct-to-biology) human liver microsomal stability assay
[1] = both, human, microsomes, pH 7.4

For `CC(C)NCC(O)COc1ccc(CC(N)=O)cc1` (stereo not shown) [Atenolol], the “%Change After 60 min” value (%remaining after LSS minus before LSS at 60 min, human liver microsomes) was 1.71%, the remaining at 0.25 h, 105 µM [1] was 90.6% and the remaining at 0.5 h, 105 µM [1] was 82.5%. The remaining at 1 h, 105 µM [1] was 75.8%.
